# According to patent US20030049211A1, “Remedies and preventives for dental diseases” (priority 2000, published 2003):
# System: nude rat implanted with human large cell lung carcinoma LC-6
# Assay: Histopathological change in the dentin of lower incisor teeth (HE stain)
# Format: in vivo
# Conditions: LC-6-implanted nude rats
# Source text: As a model animal, a nude rat implanted with human large cell lung carcinoma LC-6 [purchased from the Central Institute for Experimental Animals] was used. […] The human large cell lung carcinoma LC-6 was subcultured in vivo using a BALB/c-nu/nu nude mouse (CLEA Japan, Inc.).
# 8-week-old nude rats (F344/N Jcl-rnu) were implanted with LC-6 and these implanted-animals were divided into: a lesion control group (LC-6 group: n=5); an anti-PTHrP antibody administration group (antibody group: n=5); and, as a control agent, a commercially available therapeutic agents for hypercalcemia, Alendronate, administration group (ALN group). A non-treated control group (normal group) comprising rats of the same lineage and same week-old without the implantation of LC-6 was also provided. From the fifth week to the tenth week after the LC-6 implantation, PBS (1 ml/kg) to the LC-6 group, the anti-PTHrP antibody (3 mg/kg) to the antibody group, and ALN (2.5 mg/kg) to the ALN group, were respectively intravenously administered. Administration was carried out once a week for the LC-6 group and for the antibody group (6 times in total) and twice a week for the ALN group (12 times in total). The animals were bred until the twelfth week after the tumor implantation and then subjected to the autopsy (see Example 2). […]
smiles,measurement,setting,value
"NCCCC(O)(P(=O)(O)O)P(=O)(O)O [ALN, Alendronate]",single cell necrosis of the pulp cell,ALN 2.5 mg/kg i.v. twice a week (12 times),observed
same,lesion of incisor tooth (histopathological finding),"i.v. from fifth to tenth week after implantation, autopsy at twelfth week, antibody 3 mg/kg once a week, ALN 2.5 mg/kg twice a week",not improved
